Experimental findings from PubChem BioAssay AID248 (DTP/NCI, 2004) are described below.

The list is a part of this screen's results and no random one: it is rich in T/C values a quarter to a half above the control, in often repeated tests (any T/C) and in doses without a T/C. Further doses and runs are listed elsewhere. T/C: endpoint of the treated group in % of that of the vehicle group. Some entries give survivors of the animals treated and no T/C: the source holds a T/C of zero for them, seemingly a mark for toxic or unscored doses. Some doses without a T/C left all or most animals alive at the check, yet need not have been tolerated: survival well below the control is almost never listed, so the zero probably covers shortened survival too. Counts of survivors are from the toxicity check (mostly the fifth day) where no day follows; animals may have died later. Schedule codes are those of the source, taken here to give the interval after Q, in days (D) or hours (H), and the number of doses after X. Some doses were run more than once; the results are listed from low to high. Some schedules carry Z or #; the key to these is not given. For survival time, this PubChem deposit counts one and a half times the control or more as active, and values a quarter to a half above the control carry no call in these data; other NCI protocols may use other cut-offs.

The subject of this test is L1210 leukemia ip in BDF1 mice, survival T/C. Kind of test: NCI In Vivo Anticancer Drug Screen. Data for tumor model L1210 Leukemia (intraperitoneal) in B6D2F1 (BDF1) mice. The note with it: T/C endpoint: mean survival time, higher T/C = longer survival.
The mark [1] stands for this setting: dose: 200.0 mg/kg/injection, schedule: Q01DX001 (ip), vehicle: saline.
Where [2] appears, read: dose: 40.0 mg/kg/injection, schedule: Q01DX001 (ip), vehicle: saline.
Where [3] appears, read: dose: 80.0 mg/kg/injection, schedule: Q01DX001 (ip), vehicle: saline.
Setting [4] is: dose: 100.0 mg/kg/injection, schedule: Q01DX001 (ip), vehicle: saline.
[5] abbreviates: dose: 400.0 mg/kg/injection, schedule: Q01DX001 (ip), vehicle: saline.

As to `O=C(Nc1ccc(NC2=NCCN2)cc1)c1ccc(C(=O)Nc2ccc(NC3=NCCN3)cc2)cc1`, the T/C by setting is: (dose: 0.65 mg/kg/injection, schedule: Q#A X Z (ip), vehicle: saline) 132 and 133 % of control; (dose: 2.0 mg/kg/injection, schedule: Q01DX001 (ip), vehicle: saline) 131 % of control; (dose: 8.0 mg/kg/injection, schedule: Q01DX001 (ip), vehicle: saline) 134 % of control; (dose: 9.0 mg/kg/injection, schedule: Q01DX001 (ip), vehicle: saline) 126 and 135 % of control; (dose: 9.0 mg/kg/injection, schedule: Q03DX Z (ip), vehicle: saline) 139 % of control; (dose: 9.0 mg/kg/injection, schedule: Q07DX Z (ip), vehicle: saline) 146 % of control. For the same molecule, the T/C runs as follows: (dose: 10.0 mg/kg/injection, schedule: Q02DX004 (im), vehicle: olive oil, sesame oil, peanut oil) 147 % of control; (dose: 12.0 mg/kg/injection, schedule: Q01DX001 (ip), vehicle: carboxymethylcellulose (CMC)) 137 and 145 % of control; (dose: 12.0 mg/kg/injection, schedule: Q01DX001 (ip), vehicle: other) 140 and 143 % of control; (dose: 14.0 mg/kg/injection, schedule: Q07DX Z (ip), vehicle: saline) 133 % of control; (dose: 16.0 mg/kg/injection, schedule: Q01DX001 (ip), vehicle: saline) 136 % of control; (dose: 16.0 mg/kg/injection, schedule: Q01DX007 (iv), vehicle: saline) 136 % of control. The T/C is, setting by setting: (dose: 16.0 mg/kg/injection, schedule: Q01DX Z (ip), vehicle: saline) 131 and 134 % of control; (dose: 18.0 mg/kg/injection, schedule: Q01DX001 (ip), vehicle: carboxymethylcellulose (CMC)) 147 and 149 % of control; (dose: 18.0 mg/kg/injection, schedule: Q01DX001 (ip), vehicle: other) 147 % of control; (dose: 18.0 mg/kg/injection, schedule: Q01DX001 (ip), vehicle: saline) 126 and 130 % of control; (dose: 20.0 mg/kg/injection, schedule: Q01DX001 (im), vehicle: steroid suspending solution) 148 % of control; (dose: 21.0 mg/kg/injection, schedule: Q07DX Z (ip), vehicle: saline) 132 % of control. The T/C (dose: 24.0 mg/kg/injection, schedule: Q01DX001 (ip), vehicle: saline) was 137 % of control; the T/C (dose: 24.0 mg/kg/injection, schedule: Q01DX Z (ip), vehicle: saline) is 132 % of control; the T/C (dose: 26.0 mg/kg/injection, schedule: Q01DX001 (ip), vehicle: carboxymethylcellulose (CMC)) is 149 % of control; the T/C (dose: 36.0 mg/kg/injection, schedule: Q01DX001 (ip), vehicle: saline, evaluated on day 30) was 144 and 194 % of control; the T/C (dose: 36.0 mg/kg/injection, schedule: Q01DX001 (ip), vehicle: saline, run until all animals had died) was 137 and 252 % of control; the T/C (dose: 36.0 mg/kg/injection, schedule: Q01DX007 (iv), vehicle: saline) is 141 % of control. Also, the T/C was 126 and 141 % of control (dose: 36.0 mg/kg/injection, schedule: Q01DX Z (ip), vehicle: saline); 135 % of control (dose: 54.0 mg/kg/injection, schedule: Q01DX Z (ip), vehicle: saline); 134 % of control (dose: 135.0 mg/kg/injection, schedule: Q01DX001 (ip), vehicle: carboxymethylcellulose (CMC)); 131 % of control (dose: 135.0 mg/kg/injection, schedule: Q01DX001 (ip), vehicle: other); 140 and 172 % of control (dose: 144.0 mg/kg/injection, schedule: Q01DX001 (ip), vehicle: saline, evaluated on day 30); 160 and 301 % of control (dose: 144.0 mg/kg/injection, schedule: Q01DX001 (ip), vehicle: saline, run until all animals had died). In addition, the T/C by setting is: (dose: 288.0 mg/kg/injection, schedule: Q01DX001 (ip), vehicle: saline) 128 % of control; (dose: 288.0 mg/kg/injection, schedule: Q01DX010 (oral), vehicle: saline) 131 and 139 % of control. Also, the survivor count (dose: 15.0 mg/kg/injection, schedule: Q01DX Z (ip), vehicle: methylcellulose (MC)) is listed as 0 of 6; the survivor count (dose: 30.0 mg/kg/injection, schedule: Q01DX Z (ip), vehicle: methylcellulose (MC)) is listed as 0 of 6; the survivor count (dose: 40.0 mg/kg/injection, schedule: Q01DX010 (sc), vehicle: olive oil, sesame oil, peanut oil) was 6 of 6; the survivor count (dose: 60.0 mg/kg/injection, schedule: Q01DX Z (ip), vehicle: methylcellulose (MC)) is 3 of 6; the survivor count (dose: 80.0 mg/kg/injection, schedule: Q01DX010 (sc), vehicle: olive oil, sesame oil, peanut oil) is recorded as 6 of 6; the survivor count (dose: 120.0 mg/kg/injection, schedule: Q01DX Z (ip), vehicle: methylcellulose (MC)) was 5 of 6. Also, the survivor count (dose: 120.0 mg/kg/injection, schedule: Q01DX Z (ip), vehicle: saline) is given as 6 of 6.
With `CCCCSP(Cc1ccccc1)SCCCC`, the survivor count (dose: 400.0 mg/kg/injection, schedule: Q04DX003 (ip), vehicle: Klucel (hydroxypropylcellulose) (HPC)) is 2 of 6.
For `N#Cc1ccc(P(=O)(O)O)cc1`, under “dose: 300.0 mg/kg/injection, schedule: Q01DX001 (ip), vehicle: saline”, the survivor count was 3 of 6.
Take `c1ccc2c(CC[n+]3cccc(C4OCCO4)c3)c[nH]c2c1`: the survivor count was 6 of 6 (dose: 100.0 mg/kg/injection, schedule: Q04DX003 (ip), vehicle: saline with Tween-80); 3 of 6 (dose: 200.0 mg/kg/injection, schedule: Q04DX003 (ip), vehicle: saline with Tween-80); 0 of 6 (dose: 400.0 mg/kg/injection, schedule: Q04DX003 (ip), vehicle: saline with Tween-80).
For the molecule `Nc1ccc(Nc2cc(S(=O)(=O)O)c(N)c3c2C(=O)c2ccccc2C3=O)cc1`, under setting [1], the survivor count was 3 of 6.
On to `C[N+](C)(C)C1(c2ccc(F)cc2)CCCCC1`, for which the survivor count was 0 of 4 under setting [2]; 0 of 4 (dose: 50.0 mg/kg/injection, schedule: Q01DX001 (ip), vehicle: saline); 0 of 4 under setting [3]; 0 of 4 under setting [4]; 0 of 4 under setting [1]; 0 of 4 under setting [5].
`C[CH2][Sn]([CH2]C)([CH2]C)[O]c1ccccc1`: the survivor count is, setting by setting: (dose: 6.25 mg/kg/injection, schedule: Q01DX009 (ip), vehicle: saline with Tween-80) 1 of 3 and 2 of 3; (dose: 12.5 mg/kg/injection, schedule: Q01DX009 (ip), vehicle: saline with Tween-80) 0 of 3; (dose: 25.0 mg/kg/injection, schedule: Q01DX009 (ip), vehicle: saline with Tween-80) 0 of 3; (dose: 50.0 mg/kg/injection, schedule: Q01DX009 (ip), vehicle: saline with Tween-80) 0 of 3; (dose: 100.0 mg/kg/injection, schedule: Q01DX009 (ip), vehicle: saline with Tween-80) 0 of 3 and 0 of 6; (dose: 200.0 mg/kg/injection, schedule: Q01DX009 (ip), vehicle: saline with Tween-80) 0 of 6. In addition, the survivor count (dose: 400.0 mg/kg/injection, schedule: Q01DX009 (ip), vehicle: saline with Tween-80) was 0 of 6.
For `Cc1c(O)c2ccc3ccccc3c2oc1=O`, the survivor count (dose: 400.0 mg/kg/injection, schedule: Q04DX003 (ip), vehicle: saline) is 1 of 3.
Regarding `CNC(=O)Oc1cccc(CN(C)C)c1`, the survivor count under setting [2] is 1 of 4; the survivor count under setting [3] is 0 of 4; the survivor count under setting [4] is given as 0 of 4; the survivor count under setting [1] was 0 of 4; the survivor count under setting [5] is 0 of 4.
For the molecule `O=C(Cl)C1CCCCC1`, the survivor count by setting is: (dose: 100.0 mg/kg/injection, schedule: Q01DX015 (ip), vehicle: saline) 6 of 6; (dose: 200.0 mg/kg/injection, schedule: Q01DX015 (ip), vehicle: saline) 1 of 6.
